“And” between values parts separate entries of the source, which are not always exact repeats. Equal values may be shown once. The source gives many values for each of these; only a part stands here.
Assay: Tissue distribution of SHR9146 in mice after oral gavage of 40 mg/kg
Format: in vivo, ICR mice
Conditions: 40 mg/kg oral gavage, individual mice
Procedure: ICR mice with body weight 16–26 g were supplied by Shanghai Lingchang Biotechnology Co., Ltd. (animal breeding license number SCXK (Shanghai) 2013-0018) and housed at Shanghai Institute of Materia Medica, Chinese Academy of Sciences [animal use license number SYXK (Shanghai) 2015-0027]. The mice used in this study were fasted overnight for 12 h but had free access to water. Food was supplied 4 h post-dose. All experiments in this study were conducted in accordance with the Guidelines for the Care and Use of Laboratory Animals of Shanghai Institute of Materia Medica, Chinese Academy of Sciences.
Another set of 30 mice were randomly assigned into five groups with equal numbers, males and females, for tissue distribution study with oral gavage at a single dose of 40 mg/kg at predetermined different time points: pre-dose and post dose at 1, 3, 6, and 24 h, respectively. The whole brain, heart, liver, spleen, lung, kidney, bladder, pancreas, testis, ovary, uterus, stomach, small intestine, adrenal gland, skin, skeletal muscle, thyroid gland, and abdominal fat tissues as well as the whole blood and plasma samples were harvested. Tissue samples were washed with 0.9% sodium chloride solution to remove the residual blood or contents, blotted on a filter paper, and stored at −70°C prior to the analysis.
Protein precipitation was selected for the pretreatment of both the plasma and the tissue homogenate prepared after thawing at room temperature, cut into pieces, and homogenized with a quintuple methanol–water mixture (1:1, v/v) for each tissue sample.
Briefly as follows, an aliquot of 25-μL plasma or tissue homogenate was spiked with 100 μL of internal standard solution (1 μg/mL for plasma, 0.2 μg/mL for tissue homogenate) and 300 μL of methanol added and vortex mixed for 60 s. The mixture was then centrifuged at 14,000 rpm at 4°C for 5.0 min, and the supernatant was diluted with methanol–water (4:1, v/v) in a ratio of 1:9 for the plasma or 1:1 for the tissue homogenate, and 5 μL of the resulting solution was injected for the LC-MS/MS analysis.
After oral administration of 40 mg/kg SHR9146, samples in different tissues at predetermined time points (pre-drug administration, post-drug administration at 1, 3, 6, and 24 h) were collected and prepared for the analysis. The drug concentrations of SHR9146 (μg/g or μg/mL) were determined for each mouse, and the mean and standard deviation were further obtained (Table S7).

SMILES: OCCn1cc(-c2ccc(N3CCC([C@H]4c5c(F)cccc5-c5cncn54)CC3)cc2)cn1 [SHR9146]
- SHR9146 concentration in Abdominal fat (female, 1 h): 15.163 µg/g and 13.658 µg/g
- SHR9146 concentration in Adrenal gland (female, 1 h): 48.417 µg/g and 30.170 µg/g
- SHR9146 concentration in Brain (female, 1 h): 2.851 µg/g and 2.073 µg/g
- SHR9146 concentration in Heart (female, 1 h): 12.549 µg/g and 8.655 µg/g
- SHR9146 concentration in Ovary (female, 1 h): 21.867 µg/g and 16.170 µg/g
- SHR9146 concentration in Plasma (female, 1 h): 15.949 µg/mL and 11.706 µg/mL
- SHR9146 concentration in Skeletal muscle (female, 1 h): 10.584 µg/g and 6.380 µg/g
- SHR9146 concentration in Skin (female, 1 h): 14.126 µg/g and 9.548 µg/g
- SHR9146 concentration in Spleen (female, 1 h): 8.069 µg/g and 5.842 µg/g
- SHR9146 concentration in Stomach (female, 1 h): 31.730 µg/g and 24.126 µg/g
- SHR9146 concentration in Uterus (female, 1 h): 13.423 µg/g and 9.041 µg/g
- SHR9146 concentration in Whole blood (female, 1 h): 11.230 µg/mL and 7.393 µg/mL
- SHR9146 concentration in thyroid gland (female, 1 h): 11.884 µg/g and 8.433 µg/g
- SHR9146 concentration in Abdominal fat (female, 3 h): 9.686 µg/g and 12.161 µg/g and 4.954 µg/g
- SHR9146 concentration in Adrenal gland (female, 3 h): 31.830 µg/g and 35.567 µg/g and 15.959 µg/g
- SHR9146 concentration in Brain (female, 3 h): 1.713 µg/g and 2.082 µg/g and 0.887 µg/g
- SHR9146 concentration in Heart (female, 3 h): 7.542 µg/g and 9.931 µg/g and 3.633 µg/g
- SHR9146 concentration in Ovary (female, 3 h): 13.010 µg/g and 17.161 µg/g and 8.006 µg/g
- SHR9146 concentration in Plasma (female, 3 h): 9.347 µg/mL and 12.892 µg/mL and 4.974 µg/mL
- SHR9146 concentration in Skeletal muscle (female, 3 h): 6.781 µg/g and 7.825 µg/g and 3.125 µg/g
- SHR9146 concentration in Skin (female, 3 h): 8.432 µg/g and 10.770 µg/g and 3.900 µg/g
- SHR9146 concentration in Spleen (female, 3 h): 5.069 µg/g and 6.401 µg/g and 2.751 µg/g
- SHR9146 concentration in Stomach (female, 3 h): 28.434 µg/g and 24.290 µg/g
- SHR9146 concentration in Uterus (female, 3 h): 6.328 µg/g and 8.819 µg/g and 2.989 µg/g
- SHR9146 concentration in Whole blood (female, 3 h): 6.378 µg/mL and 8.869 µg/mL and 3.336 µg/mL
- SHR9146 concentration in thyroid gland (female, 3 h): 7.190 µg/g and 9.783 µg/g and 3.848 µg/g
- SHR9146 concentration in Abdominal fat (female, 6 h): 1.072 µg/g and 0.057 µg/g and 0.117 µg/g
- SHR9146 concentration in Heart (female, 6 h): 0.851 µg/g and 0.052 µg/g and 0.098 µg/g
- SHR9146 concentration in Ovary (female, 6 h): 1.842 µg/g and 0.270 µg/g
- SHR9146 concentration in Plasma (female, 6 h): 1.220 µg/mL and 0.070 µg/mL and 0.124 µg/mL
- SHR9146 concentration in Skeletal muscle (female, 6 h): 0.812 µg/g and 0.071 µg/g
- SHR9146 concentration in Skin (female, 6 h): 1.162 µg/g and 0.119 µg/g and 0.212 µg/g
- SHR9146 concentration in Spleen (female, 6 h): 0.659 µg/g and 0.065 µg/g
- SHR9146 concentration in Stomach (female, 6 h): 7.838 µg/g and 1.544 µg/g and 2.234 µg/g
- SHR9146 concentration in Uterus (female, 6 h): 0.978 µg/g and 0.110 µg/g
- SHR9146 concentration in Whole blood (female, 6 h): 0.815 µg/mL and 0.079 µg/mL
- SHR9146 concentration in thyroid gland (female, 6 h): 0.983 µg/g and 0.053 µg/g and 0.098 µg/g
- SHR9146 concentration in Stomach (female, 24 h): 0.908 µg/g and 0.854 µg/g
- SHR9146 concentration in Abdominal fat (male, 1 h): 11.412 µg/g and 4.018 µg/g and 6.182 µg/g
- SHR9146 concentration in Adrenal gland (male, 1 h): 30.720 µg/g and 15.849 µg/g
- SHR9146 concentration in Brain (male, 1 h): 2.025 µg/g and 1.358 µg/g
- SHR9146 concentration in Heart (male, 1 h): 8.960 µg/g and 4.578 µg/g
- SHR9146 concentration in Skeletal muscle (male, 1 h): 6.868 µg/g and 3.823 µg/g
- SHR9146 concentration in Skin (male, 1 h): 7.972 µg/g and 9.354 µg/g and 4.304 µg/g
- SHR9146 concentration in Spleen (male, 1 h): 5.584 µg/g and 3.409 µg/g
- SHR9146 concentration in Stomach (male, 1 h): 32.524 µg/g and 41.599 µg/g
- SHR9146 concentration in Testis (male, 1 h): 4.834 µg/g and 3.007 µg/g
- SHR9146 concentration in Whole blood (male, 1 h): 7.419 µg/mL and 3.946 µg/mL
- SHR9146 concentration in thyroid gland (male, 1 h): 9.009 µg/g and 4.759 µg/g
- SHR9146 concentration in Abdominal fat (male, 3 h): 0.268 µg/g and 5.628 µg/g and 6.299 µg/g
- SHR9146 concentration in Adrenal gland (male, 3 h): 0.520 µg/g and 13.407 µg/g and 11.425 µg/g
- SHR9146 concentration in Brain (male, 3 h): 0.981 µg/g
- SHR9146 concentration in Heart (male, 3 h): 0.140 µg/g and 3.802 µg/g and 4.054 µg/g
- SHR9146 concentration in Plasma (male, 3 h): 0.163 µg/mL and 5.182 µg/mL and 5.790 µg/mL
- SHR9146 concentration in Skeletal muscle (male, 3 h): 0.111 µg/g and 3.247 µg/g and 3.299 µg/g
- SHR9146 concentration in Skin (male, 3 h): 0.202 µg/g and 4.582 µg/g and 4.535 µg/g
- SHR9146 concentration in Spleen (male, 3 h): 0.097 µg/g and 2.465 µg/g and 2.538 µg/g
- SHR9146 concentration in Stomach (male, 3 h): 0.927 µg/g and 18.374 µg/g and 11.306 µg/g
- SHR9146 concentration in Testis (male, 3 h): 0.166 µg/g and 2.308 µg/g and 2.504 µg/g
- SHR9146 concentration in Whole blood (male, 3 h): 0.119 µg/mL and 3.297 µg/mL and 3.895 µg/mL
- SHR9146 concentration in thyroid gland (male, 3 h): 0.163 µg/g and 3.897 µg/g and 4.136 µg/g
- SHR9146 concentration in Abdominal fat (male, 6 h): 0.067 µg/g and 0.157 µg/g
- SHR9146 concentration in Heart (male, 6 h): 0.085 µg/g
- SHR9146 concentration in Plasma (male, 6 h): 0.094 µg/mL
- SHR9146 concentration in Skin (male, 6 h): 0.148 µg/g and 0.058 µg/g and 0.134 µg/g
- SHR9146 concentration in Stomach (male, 6 h): 1.364 µg/g and 0.499 µg/g and 1.545 µg/g
- SHR9146 concentration in Testis (male, 6 h): 0.101 µg/g and 0.050 µg/g and 0.148 µg/g
- SHR9146 concentration in thyroid gland (male, 6 h): 0.117 µg/g
- SHR9146 concentration in Stomach (male, 24 h): 0.363 µg/g and 0.231 µg/g and 0.904 µg/g
